Laboratory results as given in PubChem BioAssay AID540256 (National Center for Advancing Translational Sciences (NCATS), 2011).
Where “and” joins values, the source holds several entries; their conditions need not be identical. Equal values may be shown once. The campaign covered roughly 300,000 compounds. About 3,700 (1.2%) were called active. The inconclusive results got no clear call from the source; some entries with a clear call stand among them for comparison. Calls come from the whole dose curve; tested in HEK293 cells. Potencies of inconclusive entries are doubtful fits and often do not repeat.

experiment: qHTS for Inhibitors of binding or entry into cells for Lassa Virus; settings: Lassa virus pseudotype entry inhibition, cell reporter; activity change, negative = inhibition: at 37.9 µM (top of the series) unless noted; note: nearly all actives have a fitted effect of over 50% in size
% is set by controls: 0 for no effect and ±100 for the full control effect; potency is the fitted concentration of half-maximal effect.

Compound | Potency | activity change, negative = inhibition
CCOC(=O)CC1COCCN1Cc1cn[nH]c1-c1ccc2c(c1)OCO2 (centres undefined) | inconclusive: 11.2 µM [activator, partial curve, poor fit] | 
Cc1ccc(C(=O)O)cc1-c1ccc(/C=C2\SC(=O)N(CC(=O)Nc3ccccc3)C2=O)o1 |  | inactive: -4.33%
Cc1ccc2nc3ccc(N4CCCCCCC4)nn3c(=O)c2c1 | inconclusive: 20.6 µM [activator, single point] | 
CCOc1ccccc1-n1c(O)c(C=NCCCn2ccnc2)c(=O)[nH]c1=O |  | inactive: 2.68%
O=C(COc1ccc2c(c1)CCC2)NCc1cccc(Cl)c1 | inconclusive: 25.1 µM [inhibitor, single point] | 
Cc1ccc(C)c(NC(=O)COc2cccc3c2CCN(Cc2ccccc2C)C3=O)c1 | inconclusive: 10 µM [inhibitor, partial curve, poor fit] | 
Cc1sc(=NC(=O)c2ccco2)n(C)c1-c1ccc(F)cc1 | inconclusive: 31.6 µM [inhibitor, single point] | 
CCCCNC(=O)c1sc(=S)n(-c2ccccc2OC)c1N | inconclusive: 13 µM [inhibitor, single point] | 
COC(=O)CS(=O)(=O)c1ccsc1C(=O)Nc1ccc(F)cc1 |  | inactive: -11.5% [at 46.1 µM]
Oc1ccc(-n2nnnc2SCc2ccccc2Br)cc1 | inconclusive: 6.31 µM [inhibitor, partial curve, poor fit] | 
Cc1nn(CCCC(=O)NCc2ccccc2)c(=O)c2c1sc1ccccc12 | inconclusive: 11.2 µM [inhibitor, single point] | 
Cc1cc(C)n2nc(C(=O)OCC(=O)Nc3ccc(F)cc3F)nc2n1 | inconclusive: 5.62 µM [inhibitor, single point] | 
CN(C)c1ccc(/C=N/Nc2nncc3ccccc23)cc1 | inconclusive: 1.58 µM [inhibitor, full curve, poor fit] | 
CCOc1ccccc1NC(=O)C1CCN(S(=O)(=O)c2ccc(Br)cc2)CC1 |  | inactive: 10.6% [at 46.1 µM]
Cc1ccc(-n2nc(C(=O)N3CCCCC3C)c(=O)n(C)c2=O)cc1 (centres undefined) |  | inactive: 29.8% [at 46.1 µM]
CN(C)c1ccc(CNc2ncc(Br)cc2Br)cc1 |  | inactive: 5.71%
Cc1ccc(S(=O)(=O)c2cn(C)c3cc(N4CCN(c5ccccc5)CC4)c(F)cc3c2=O)cc1 | inconclusive: 31.6 µM [activator, partial curve, poor fit] | 
Cc1cc(C)n2nc3nc(N4CCCCC4)nc(-c4ccco4)c3c2n1 |  | inactive: 3.97%
CCOC(=O)c1ccc(NC(=O)c2nc(S(=O)(=O)Cc3ccccc3)ncc2Cl)cc1 | inconclusive: 35.5 µM [inhibitor, single point] and inconclusive: 14.1 µM [inhibitor, partial curve, poor fit] | 
NNC(=O)c1cn2ccccc2n1 |  | inactive: 29.5%
C/C(=N\NC(=O)c1c(C)nc2ccccn12)c1ccc(C(C)(C)C)cc1 | inconclusive: 10 µM [inhibitor, partial curve, poor fit] | 
c1ccc(-c2nc(-n3nc4ccccc4n3)nc3ccccc23)cc1 | inconclusive: 11.2 µM [inhibitor, single point] | 

A draw from above in order of molecular weight, largest number first:
Compound | Potency | activity change, negative = inhibition
Cc1ccc(C(=O)O)cc1-c1ccc(/C=C2\SC(=O)N(CC(=O)Nc3ccccc3)C2=O)o1 |  | inactive: -4.33%
Cc1ccc(C)c(NC(=O)COc2cccc3c2CCN(Cc2ccccc2C)C3=O)c1 | inconclusive: 10 µM [inhibitor, partial curve, poor fit] | 
Oc1ccc(-n2nnnc2SCc2ccccc2Br)cc1 | inconclusive: 6.31 µM [inhibitor, partial curve, poor fit] | 
CN(C)c1ccc(/C=N/Nc2nncc3ccccc23)cc1 | inconclusive: 1.58 µM [inhibitor, full curve, poor fit] | 

(more compounds)

Compound | Potency | activity change, negative = inhibition
CS(=O)(=O)N(Cc1ccc(C(=O)NN=C2CCCCCC2)cc1)c1ccccc1 | inconclusive: 35.5 µM [activator, single point] | 
COc1ccc(CN=C2NN=C(c3ccc(Cl)cc3)CS2)cc1 |  | inactive: 1.68%
Cc1ccc(NC(=O)C2CCN(S(=O)(=O)c3cccs3)CC2)cc1 | inconclusive: 35.5 µM [inhibitor, single point] | 
COC(=O)c1c(C)sc(-c2c(-c3ccc(F)cc3)[nH]c3[nH]c(=O)[nH]c(=O)c23)c1O |  | inconclusive: 17.4% [activator] [at 46.1 µM]
CCc1ccc(/C(C)=N/Nc2cc(Cl)nc(C)n2)cc1 | inconclusive: 5.8 µM [inhibitor, full curve, poor fit] | 
CCCc1nn2c(=O)cc(COC(=O)c3ccccc3NC(=O)C3CCCCC3)nc2s1 |  | inactive: 19.5% [at 46.1 µM]
O=C(Oc1ccc(-c2cnc3ccccc3n2)cc1)c1ccc(Br)o1 | inconclusive: 29.1 µM [inhibitor, single point] | 
CC(C)c1ccc(Nc2ncccc2C(=O)O)cc1 | inconclusive: 12.6 µM [inhibitor, single point] | 
O=C(O)CCC(NS(=O)(=O)c1ccc(N2CCCC2=O)cc1)C(=O)O (centres undefined) |  | inactive: -12%
CCOc1ccc(C(c2c(NC(=O)c3ccccc3)sc(C)c2C)N2CCN(CCO)CC2)cc1 (centres undefined) | inconclusive: 20 µM [inhibitor, single point] | 
CC(=O)Oc1ccc(N(C(C)=O)S(=O)(=O)c2cccs2)c2ccccc12 |  | inactive: 13.7% [at 14.3 µM]
Clc1ccc(NC2=NCCCS2)cc1Cl | inconclusive: 35.5 µM [activator, single point] | 
COc1ccccc1N1CCN(C(c2ccccn2)c2nnnn2C2CCCCC2)CC1 (centres undefined) |  | inactive: -11.8%
COc1ccc(C(=O)/C=C2/C(=O)Nc3ccccc32)c(OC)c1 | inconclusive: 14.1 µM [inhibitor, partial curve, poor fit] | 
Cc1nn(C)cc1/C=N/NC(=O)CSc1ccccn1 | inconclusive: 0.708 µM [inhibitor, single point] | 
O=C(Cc1cn2ccsc2n1)NCc1ccccc1 |  | inactive: 7.07%
CCOC(=O)Cn1c2[n+](c3ccccc31)CC(O)CS2 (centres undefined) | inconclusive: 8.2 µM [activator, partial curve, poor fit] | 
O=C(CCS(=O)(=O)c1ccc(Cl)cc1)Nc1nnc(-c2cccs2)o1 | inconclusive: 14.1 µM [inhibitor, single point] | 
Cc1ccccc1NC1=NS(=O)(=O)c2ccccc21 | inconclusive: 32.6 µM [activator, single point] | 
Cc1ccccc1CN1C(=O)c2ccccc2S(=O)c2ccc(C(=O)NCc3ccccc3)cc21 (centres undefined) | inconclusive: 17.8 µM [inhibitor, partial curve, poor fit] | 
COc1cccc(NC(=O)COc2cccnc2[N+](=O)[O-])c1 | inconclusive: 3.55 µM [activator, partial curve, poor fit] | 
c1ccc2cc(N3CCCCC3)ccc2c1 |  | inactive: 0.84% [at 46.1 µM]
